Out of some 330,000 compounds screened, about 7,700 (2.3%) were called active. Inconclusive means that the source gave no clear call. Such entries were picked first, then a sample of the others. The call rests on the fitted dose curve; in most records, active means well fitted inhibition curve with a large enough effect; inconclusive means small, poorly fitted or top-dose-only effect, or effect the other way; inactive means flat fitted curve, though single readings scatter. Where the call is inconclusive, the potency comes from a doubtful curve fit.
test: qHTS screen for small molecules that inhibit ELG1-dependent DNA repair in human embryonic kidney (HEK293T) cells expressing luciferase-tagged ELG1; settings: HEK293T ELG1-luciferase reporter, luminescence, 16 h, DNA damage induced by 5-fluorouridine; activity change, negative = inhibition: at 46.1 µM (top of the series); further: nearly all actives have a fitted effect of over 55% in size
Procedure, shortened: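 In this reporter screen, reduction of luminescence relative to DMSO vehicle indicated activity. Compounds and 5-fluorouridine were added together to 2,000 cells per well, incubated for 16 hr at 37 °C, then developed with ONE-Glo.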
On the % scale 0 is the no-effect control and ±100 the full control effect; potency means the concentration at half of the fitted maximal effect.

SMILES	activity change, negative = inhibition	Potency
COc1ccc(CCN(C)S(=O)(=O)c2cn(C)c(=O)n(C)c2=O)cc1OC	inactive: 24.2%	–
Cc1cccc(NC(=S)N=Nc2c(O)n(C)c3ccc(S(=O)(=O)N4CCOCC4)cc23)c1	inactive: 3.29%	–
Cc1ccc(S(=O)(=O)N/N=C2/CC(c3ccccc3)Oc3ccccc32)cc1[N+](=O)[O-] (configuration not stated)	–	inconclusive: 16.4 µM [activator, single point]
CCOC(=O)COc1cc2oc(=O)cc(C)c2cc1[N+](=O)[O-]	–	inconclusive: 20.6 µM [activator, partial curve, poor fit]
CCc1ccc(NC(=S)N(Cc2ccccc2)Cc2ccccn2)cc1	inactive: 9.78%	–
O=C(NCCc1nc2ccccc2[nH]1)Nc1ccccc1	–	inconclusive: 20.6 µM [activator, partial curve, poor fit]
Cc1ccc(S(=O)(=O)NC(C)CCc2ccccc2)cc1 (configuration not stated)	–	inconclusive: 2.06 µM [inhibitor, partial curve, poor fit]
Cc1cc(C(=O)COc2nncc3ccccc23)c(C)n1C	–	inconclusive: 18.4 µM [activator, single point]
O=C(NCc1ccc(Cl)cc1)C1CCCN(c2ncnc3c2nc2n3CCCCC2)C1 (configuration not stated)	–	active: 14.6 µM
O=C1[C@@H]2[C@H](Cc3ccc(O)cc3)N[C@]3(C(=O)Nc4ccccc43)[C@@H]2C(=O)N1c1ccc(F)cc1	–	inconclusive: 18.4 µM [inhibitor, partial curve, poor fit]
Oc1ccccc1Nc1ncnc2c1oc1ccccc12	–	inconclusive: 23.1 µM [activator, single point]
O=C(c1ccc(S(=O)(=O)N2CCCC2)cc1)N1CCN(c2ccccc2F)CC1	inactive: 13.3%	–
Cc1ccc(COc2ccc(/C=N/NC(=O)CN3CCCCC3)cc2)cc1	–	inconclusive: 20.6 µM [activator, partial curve]
Cc1ccc(S(=O)(=O)N2CCCC(C(=O)N3CCN(c4ccccc4)CC3)C2)cc1 (configuration not stated)	–	active: 20.6 µM
CCOC(=O)c1c(S(=O)(=O)N2CCCC2)c(C)n(C)c1C	inactive: -1.28%	–
CSc1ccc(C2Nc3ccccc3-c3cc(C)nn32)cc1 (configuration not stated)	inactive: 12.4%	–
CC1CCCCN1S(=O)(=O)c1ccc(N(C(=O)c2cnccn2)C(C(=O)NC2CCCC2)c2cccs2)cc1 (configuration not stated)	inactive: -8.1%	–
CCOC(=O)C1(CCOc2ccccc2)CCN(CCCn2cccn2)CC1	inactive: -3.77%	–
COc1ccccc1NC(=O)C(C)Sc1nc2ccccc2c(=O)n1CC1CCCO1 (configuration not stated)	inactive: -1.44%	–
CC(c1n[nH]c(=S)n1-c1ccc(Cl)cc1)N(C)C (configuration not stated)	inactive: 13.6%	–
CN(C)S(=O)(=O)n1cnc([C@@H]2[C@H]3C(=O)OC[C@@H]3C[C@@]23N=CN(Cc2ccccc2)C3=O)c1	–	inconclusive: 29.1 µM [activator, single point]
CCOc1ccc(-c2cc(CCCC(=O)N3CCN(c4ccc(OC)cc4)CC3)no2)cc1	inactive: -23.4%	–
ClC(Cl)(c1nnnn1-c1ccccc1)c1nnnn1-c1ccccc1	inactive: -1.24%	–
Cc1ccc(NC(=O)CN(C)S(=O)(=O)c2cccc3nsnc23)cc1C	–	inconclusive: 18.4 µM [inhibitor, partial curve, poor fit]

SMILES	activity change, negative = inhibition	Potency
COc1ccc(NC(=O)C2Cc3ccccc3O/C2=N\O)cc1 (configuration not stated)	–	inconclusive: 20.6 µM [activator, partial curve]
Fc1ccccc1-c1nc(-c2ccccc2)no1	–	inconclusive: 3.66 µM [activator, partial curve]
COC(=O)c1ccccc1OCC(=O)NC1CCCCC1	inactive: 13.9%	–
CCCNC(=O)CCc1c(C)nc2nc(-c3cc(OC)cc(OC)c3)nn2c1C	–	inconclusive: 18.4 µM [inhibitor, single point]
CCOc1ccc(NC(=S)Nc2ccccc2C2CC2)cc1	inactive: 9.68%	–
O=S(=O)(c1cccc2nsnc12)N1CCc2ccccc2C1	–	inconclusive: 16.4 µM [activator, single point]
COC(=O)Cn1c2c(c3cc(C)ccc31)CCCC2NC(C)c1ccccc1 (configuration not stated)	inactive: 2.36%	–
Cc1nc(-c2coc3cc(O)c(C)cc3c2=O)cs1	–	inconclusive: 5.17 µM [activator, partial curve]
Cc1ccc(CNC(=O)C2CCC(=O)N(Cc3ccccc3F)C2)s1 (configuration not stated)	–	inconclusive: 23.1 µM [activator, single point]
COc1ccc2nc(NC(=O)CSCc3c(C)noc3C)sc2c1	–	inconclusive: 25.9 µM [activator, single point]
CCCCS(=O)(=O)N1CCC(C(=O)Oc2ccc(Cl)cc2)CC1	–	inconclusive: 32.6 µM [activator, partial curve, poor fit]
Cc1ccc(/C=N/Nc2ccc(Cl)nn2)cc1	–	inconclusive: 4.61 µM [activator, partial curve]
Cc1ccc(-c2noc(CCC(=O)NC3CCCc4ccccc43)n2)cc1 (configuration not stated)	–	inconclusive: 18.4 µM [inhibitor, partial curve, poor fit]
COc1ccc2cc(C3CC(c4cccs4)=NN3S(C)(=O)=O)c(Cl)nc2c1 (configuration not stated)	–	inconclusive: 20.6 µM [inhibitor, partial curve, poor fit]
c1ccc2c(c1)cnc1ccccc12	–	inconclusive: 13 µM [inhibitor, partial curve]
CC(C)CC(CC(C)C)=NNC(=O)c1ccc2c(c1)OCO2	inactive: -10.8%	–
Cc1cc(C)c(C)c(S(=O)(=O)N2CCC(C(=O)Nc3ccc(S(=O)(=O)N4CCOCC4)cc3)CC2)c1C	–	active: 11.6 µM
CCc1noc(C)c1C(=O)Nc1cccc(S(=O)(=O)N(C)c2ccccc2)c1	–	inconclusive: 9.2 µM [inhibitor, single point]
CCn1c(C)cc(/C=C2/NC(=O)N(c3ccccc3)C2=O)c1C	–	inconclusive: 2.59 µM [activator, partial curve]
Cc1ccc(CN2CCN(Cc3ccc4cccc(F)c4n3)CC2CCO)cc1 (configuration not stated)	–	inconclusive: 23.1 µM [inhibitor, partial curve, poor fit]
CCc1ccc(C(C(=O)NC2CCCC2)N(C(=O)/C=C/C(=O)Nc2cc(C)on2)c2ccccc2C)cc1 (configuration not stated)	–	inconclusive: 29.1 µM [inhibitor, single point]
O=C1c2ccccc2C(=O)c2c1ncn2-c1ccccc1	inactive: -22.2%	–
CCOC(=O)/C(=N\Nc1ccccc1)S(=O)(=O)c1ccccc1	–	inconclusive: 29.1 µM [inhibitor, partial curve, poor fit]
CCN(CC(=O)Nc1ccc2c(c1)OCCO2)c1nc(-c2cccnc2)nc2ccccc12	–	active: 12.6 µM

A few values from the results shown:
CCCCS(=O)(=O)N1CCC(C(=O)Oc2ccc(Cl)cc2)CC1 – Potency: inconclusive: 32.6 µM [activator, partial curve, poor fit]
Fc1ccccc1-c1nc(-c2ccccc2)no1 – Potency: inconclusive: 3.66 µM [activator, partial curve]
Cc1nc(-c2coc3cc(O)c(C)cc3c2=O)cs1 – Potency: inconclusive: 5.17 µM [activator, partial curve]

Continued:

SMILES	activity change, negative = inhibition	Potency
O=C(NCCCn1ccnc1)c1cc(-c2cccs2)on1	–	inconclusive: 14.6 µM [activator, partial curve]
CCOC(=O)c1c(CSc2cccs2)n(C)c2cc(Br)c(O)c(CN(C)C)c12	–	inconclusive: 32.6 µM [inhibitor, single point]
C(=N\Nc1nc2ccccc2[nH]1)/c1ccccc1	–	inconclusive: 20.6 µM [activator, partial curve]
Cc1cc(=O)oc2cc(NC(=O)C(C)Oc3cccc(Cl)c3)ccc12 (configuration not stated)	–	inconclusive: 25.9 µM [activator, single point]
O=C(Nc1sc2c(c1C(=O)NCCCO)CCCC2)c1ccccc1	–	inconclusive: 1.64 µM [inhibitor, partial curve]
CC1Cc2ccccc2N1CC(=O)Nc1ccc(Cl)c(S(=O)(=O)N(C)C)c1 (configuration not stated)	–	active: 23.1 µM
COC(=O)c1sccc1NC(=O)CSc1ccccc1NS(=O)(=O)c1ccccc1Cl	–	inconclusive: 18.4 µM [inhibitor, single point]
Cn1nnnc1Sc1ncnc2scc(-c3cccc(C(F)(F)F)c3)c12	–	inconclusive: 20.6 µM [inhibitor, partial curve, poor fit]
CCCc1nnc(NC(=O)CCC(=O)Nc2ccc(Br)cc2)s1	–	inconclusive: 29.1 µM [activator, single point]
CNC(=S)N(CCc1cccc(C)c1)Cc1cc2cc(OC)c(OC)cc2[nH]c1=O	–	active: 13 µM
O=C(N/N=C/c1ccc(Br)o1)c1cc([N+](=O)[O-])cc([N+](=O)[O-])c1	inactive: 0%	–
CC(C)(C)n1nc2c(c1NC(=O)COc1ccc(Cl)cc1)CS(=O)(=O)C2	inactive: -11.8%	–
O=C1OCc2ccc(NS(=O)(=O)c3ccc(C(F)(F)F)cc3)cc21	inactive: -3.26%	–
Cc1ccc(-c2noc(C3CCN(S(C)(=O)=O)CC3)n2)o1	–	inconclusive: 18.4 µM [activator, partial curve]
O=C(CN1CCN(c2ccccn2)CC1)N1c2ccccc2CCc2ccccc21	–	inconclusive: 23.1 µM [inhibitor, partial curve, poor fit]
CCc1nnc(NC(=O)CSc2ccc(-c3ccc(C)cc3)nn2)s1	–	inconclusive: 13 µM [activator, partial curve]
O=C(CCc1ccccc1)NCCSCc1c(F)cccc1Cl	inactive: 16.9%	–
Cc1ccc(CC(=O)NCc2ccc(F)cc2)cc1	inactive: 7.38%	–
CCOC(=O)c1c(NC(NC(C)=O)C(Cl)(Cl)Cl)sc(C(C)=O)c1C (configuration not stated)	–	inconclusive: 22.4 µM [inhibitor, single point]
Cc1ccc(OCCc2csc(N)n2)cc1	–	inconclusive: 23.1 µM [activator, partial curve, poor fit]
COc1ccc(-c2cc(C(=O)Nc3cccc(C(C)=O)c3)no2)cc1	–	inconclusive: 6.51 µM [activator, partial curve]
Cc1ccc(C)c(NC(=O)CSc2nnc(CNC(=O)c3ccco3)o2)c1	inactive: 5.34%	–
CCC/C(=N\NC(=O)C1CCCC1)c1ccccc1	inactive: -3.77%	–
CC(C)(C)N=Cc1cc(-c2ccccc2)sc1O	–	inconclusive: 8.2 µM [activator, partial curve]
